From patent publication US11407721B2, “CIS-morpholinone and other compounds as MDM2 inhibitors for the treatment of cancer” (AMGEN INC., priority 2013, dated 2022) come the findings set out here.

By UniProt entry, the sequences of proteins in these tests, tags left out. Residues count along the entry.
UniProt Q00987, 1-188 limits assumed: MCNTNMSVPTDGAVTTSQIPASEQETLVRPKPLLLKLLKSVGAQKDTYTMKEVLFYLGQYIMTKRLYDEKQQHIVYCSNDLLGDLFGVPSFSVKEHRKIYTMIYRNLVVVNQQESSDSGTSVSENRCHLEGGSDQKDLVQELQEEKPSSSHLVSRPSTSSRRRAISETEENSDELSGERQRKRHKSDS

Structures are written as SMILES. Several values for one entry are separate records, joined by “and”; a condition that tells them apart may be missing. Equal values may be shown once. The match of structure and compound is tentative.

For orientation: IC50 means the concentration needed to halve the response being measured.

This experiment has as its target interaction between HDM2 and p53 (GST-hMDM2 (1-188) / biotinylated-p53 (1-83)) (Homo sapiens (Human), UniProt Q00987). Nature of the experiment: HTRF2 Assay (improved HTRF assay). In kind it is binding. Particulars: read-out: HTRF2 IC50; 0.2 nM GST-hMDM2 (1-188), 0.5 nM biotinylated-p53 (1-83), 100 mM KF. On the technique in general: TR-FRET usually uses a lanthanide donor and a delayed reading to cut background.
For the compound `CC1(c2ccc(Cl)cc2)OCC(=O)NC1c1ccc(Cl)cc1` (centres unmarked), the IC50 was 100000 nM.

As to `CCCC(C(=O)OCC)N1C(=O)C(CC(=O)O)OC(c2cccc(Cl)c2)C1c1ccc(Cl)cc1` (centres unmarked), the IC50 amounted to 2310 nM.

Consider `CCC[C@H](C(=O)N1CCC[C@@H]1C(=O)O)N1C(=O)[C@H](Cc2ccc(F)cc2)O[C@@H](c2ccc(Cl)cc2)[C@H]1c1ccc(Cl)cc1`, for which the IC50 worked out at 1050 nM.

For `CCC[C@H](C(=O)NCC[C@H](O)C(=O)O)N1C(=O)[C@H](Cc2ccc(C#N)cc2)O[C@@H](c2ccc(Cl)cc2)[C@H]1c1ccc(Cl)cc1`, the IC50 was determined as 459 nM.

With `CCC[C@H](C(=O)NC[C@@H](N)C(=O)O)N1C(=O)[C@H](Cc2ccc(C#N)cc2)O[C@@H](c2ccc(Cl)cc2)[C@H]1c1ccc(Cl)cc1`, the IC50 is 950 nM.

For the compound `CCC[C@H](C(=O)NC[C@@H](NC(=O)OC(C)(C)C)C(=O)O)N1C(=O)[C@H](Cc2ccc(C#N)cc2)O[C@@H](c2ccc(Cl)cc2)[C@H]1c1ccc(Cl)cc1`, the IC50 amounted to 660 nM.

Turning to `CCC[C@H](C(=O)NC[C@H](O)CC(=O)O)N1C(=O)[C@H](Cc2ccc(C#N)cc2)O[C@@H](c2ccc(Cl)cc2)[C@H]1c1ccc(Cl)cc1`, the IC50 was determined as 428 nM.

Take `CCC[C@H](C(=O)O)N1C(=O)C(Cc2ccc(F)cc2)O[C@@H](c2cccc(Cl)c2)[C@H]1c1ccc(Cl)cc1` (some centres unmarked): the IC50 is 3920 nM.

For `O=C1[C@@H](CC(O)CO)O[C@H](c2ccc(Cl)cc2)[C@H](c2ccc(Cl)cc2)N1CC1CC1` (some centres unmarked), the IC50 is 9940 nM.

For the compound `C=CC[C@@H]1O[C@@H](c2ccc(Cl)cc2)[C@@H](c2ccc(Cl)cc2)N([C@H](CCC)C(=O)O)C1=O` (relative stereo), the IC50 turned out to be 997 nM.

Regarding `C=CC[C@@H]1O[C@@H](c2ccc(Cl)cc2)[C@@H](c2ccc(Cl)cc2)N([C@H](CCC)C(N)=O)C1=O` (relative stereo), the IC50 is 1940 nM.

On to `C=CC[C@H](C(=O)O)N1C(=O)[C@H](Cc2ccc(F)cc2)O[C@@H](c2ccc(Cl)cc2)[C@H]1c1ccc(Cl)cc1` (relative stereo), for which the IC50 worked out at 2820 nM.

Turning to `CCCC[C@H](C(=O)O)N1C(=O)[C@H](Cc2ccc(F)cc2)O[C@@H](c2ccc(Cl)cc2)[C@H]1c1ccc(Cl)cc1` (relative stereo), the IC50 came to 2130 nM.

`CCC[C@@H](C(N)=O)N1C(=O)[C@@H](CC(=O)O)O[C@H](c2ccc(Cl)cc2)[C@@H]1c1ccc(Cl)cc1` (relative stereo): the IC50 is 7820 nM.

Turning to `CCC[C@@H](C)N1C(=O)[C@@H](CC(=O)O)O[C@H](c2cccc(Cl)c2)[C@@H]1c1ccc(Cl)cc1` (relative stereo), the IC50 was 677 nM.

In the case of `CCC[C@@H](CC(=O)O)N1C(=O)[C@@H](Cc2ccc(F)cc2)O[C@H](c2cccc(Cl)c2)[C@@H]1c1ccc(Cl)cc1` (relative stereo), the IC50 stood at 16400 nM.

Take `CCC[C@@H](CO)N1C(=O)[C@@H](Cc2ccc(F)cc2)O[C@H](c2ccc(Cl)cc2)[C@@H]1c1ccc(Cl)cc1` (relative stereo): the IC50 was 2070 nM.

With `CCC[C@H](C(=O)N1CCC[C@H]1C(=O)OC)N1C(=O)[C@H](Cc2ccc(F)cc2)O[C@@H](c2ccc(Cl)cc2)[C@H]1c1ccc(Cl)cc1` (relative stereo), the IC50 came to 1390 nM.

Consider `CCC[C@H](C(=O)NCCN1CCOCC1)N1C(=O)[C@H](Cc2ccc(F)cc2)O[C@@H](c2ccc(Cl)cc2)[C@H]1c1ccc(Cl)cc1` (relative stereo), for which the IC50 turned out to be 691 nM.

Consider `CCC[C@H](C(=O)NCCc1nnn[nH]1)N1C(=O)[C@H](Cc2ccc(C#N)cc2)O[C@@H](c2ccc(Cl)cc2)[C@H]1c1ccc(Cl)cc1` (relative stereo), for which the IC50 stood at 2030 nM.

In the case of `CCC[C@H](C(=O)NC[C@@H](C)C(=O)O)N1C(=O)[C@H](Cc2ccc(C#N)cc2)O[C@@H](c2ccc(Cl)cc2)[C@H]1c1ccc(Cl)cc1` (relative stereo), the concentration for half-maximal inhibition (IC50) stood at 386 nM.

Regarding `CCC[C@H](C(=O)NCc1nnn[nH]1)N1C(=O)[C@H](Cc2ccc(C#N)cc2)O[C@@H](c2ccc(Cl)cc2)[C@H]1c1ccc(Cl)cc1` (relative stereo), the IC50 stood at 610 nM.

As for `CCC[C@H](C(=O)NS(=O)(=O)C1CC1)N1C(=O)[C@H](Cc2ccc(F)cc2)O[C@@H](c2ccc(Cl)cc2)[C@H]1c1ccc(Cl)cc1` (relative stereo), the IC50 worked out at 1210 nM.

On to `CCC[C@H](C(=O)N[C@@H](C)C(=O)O)N1C(=O)[C@H](Cc2ccc(C#N)cc2)O[C@@H](c2ccc(Cl)cc2)[C@H]1c1ccc(Cl)cc1` (relative stereo), for which the IC50 was 419 nM.

For the compound `CCC[C@H](C(=O)N[C@H](C)C(=O)O)N1C(=O)[C@H](Cc2ccc(C#N)cc2)O[C@@H](c2ccc(Cl)cc2)[C@H]1c1ccc(Cl)cc1` (relative stereo), the IC50 was found to be 440 nM.

As for `CCC[C@H](C(=O)O)N1C(=O)[C@H](C[C@@H](O)CO)O[C@@H](c2ccc(Cl)cc2)[C@H]1c1ccc(Cl)cc1` (relative stereo), the IC50 was determined as 3520 nM.

Turning to `CCC[C@H](C(=O)O)N1C(=O)[C@H](Cc2ccc(-n3cccc3)cc2)O[C@@H](c2ccc(Cl)cc2)[C@H]1c1ccc(Cl)cc1` (relative stereo), the IC50 came out at 1300 nM.

Consider `CCC[C@H](C(=O)O)N1C(=O)[C@H](Cc2ccc(-n3cccn3)cc2)O[C@@H](c2ccc(Cl)cc2)[C@H]1c1ccc(Cl)cc1` (relative stereo), for which the IC50 worked out at 1010 nM.

Regarding `CCC[C@H](C(=O)O)N1C(=O)[C@H](Cc2ccc(-n3cncn3)cc2)O[C@@H](c2ccc(Cl)cc2)[C@H]1c1ccc(Cl)cc1` (relative stereo), the IC50 is 1150 nM.

As for `CCC[C@H](C(=O)O)N1C(=O)[C@H](Cc2ccc(C#N)cc2F)O[C@@H](c2ccc(Cl)cc2)[C@H]1c1ccc(Cl)cc1` (relative stereo), the IC50 worked out at 1120 nM.

As to `CCC[C@H](C(=O)O)N1C(=O)[C@H](Cc2ccc(F)cc2)O[C@@](C)(c2ccc(Cl)cc2)[C@H]1c1ccc(Cl)cc1` (relative stereo), the IC50 came out at 17900 nM.

Turning to `CCC[C@H](C(=O)O)N1C(=O)[C@H](Cc2ccc(OC)cc2)O[C@@H](c2ccc(Cl)cc2)[C@H]1c1ccc(Cl)cc1` (relative stereo), the IC50 amounted to 1340 nM.

Consider `CCC[C@H](C(=O)O)N1C(=O)[C@H](Cc2ccc(S(C)(=O)=O)cc2F)O[C@@H](c2ccc(Cl)cc2)[C@H]1c1ccc(Cl)cc1` (relative stereo), for which the IC50 is 1820 nM.

For the compound `CCC[C@H](C(N)=O)N1C(=O)[C@H](C[C@@H](O)CO)O[C@@H](c2ccc(Cl)cc2)[C@H]1c1ccc(Cl)cc1` (relative stereo), the IC50 was determined as 2380 nM.

On to `CCC[C@H](C(N)=O)N1C(=O)[C@H](C[C@@H](O)CO)O[C@@H](c2cccc(Cl)c2)[C@H]1c1ccc(Cl)cc1` (relative stereo), for which the IC50 was 752 nM.

As for `CCC[C@H](C(N)=O)N1C(=O)[C@H](C[C@H](O)CO)O[C@@H](c2ccc(Cl)cc2)[C@H]1c1ccc(Cl)cc1` (relative stereo), the IC50 came to 1760 nM.

Take `CCC[C@H](C(N)=O)N1C(=O)[C@H](C[C@H](O)CO)O[C@@H](c2cccc(Cl)c2)[C@H]1c1ccc(Cl)cc1` (relative stereo): the IC50 came to 2100 nM.

As to `CCC[C@H](C(N)=O)N1C(=O)[C@H](Cc2ccc(I)cc2)O[C@@H](c2ccc(Cl)cc2)[C@H]1c1ccc(Cl)cc1` (relative stereo), the IC50 was 912 nM.

Turning to `CCC[C@H](CO)N1C(=O)CO[C@@H](c2ccc(Cl)cc2)[C@H]1c1ccc(Cl)cc1` (relative stereo), the IC50 came to 5120 nM.

Turning to `CCC[C@H](CO)N1C(=O)[C@H](Cc2ccc(F)cc2)O[C@@H](c2ccc(Cl)cc2)[C@H]1c1ccc(Cl)cc1` (relative stereo), the IC50 was 644 nM.

For `CCC[C@H](COCC(=O)O)N1C(=O)CO[C@@H](c2ccc(Cl)cc2)[C@H]1c1ccc(Cl)cc1` (relative stereo), the IC50 amounted to 6580 nM.

As for `NC(=O)[C@@H](c1ccc(Cl)cc1)N1C(=O)[C@H](Cc2ccc(F)cc2)O[C@@H](c2ccc(Cl)cc2)[C@H]1c1ccc(Cl)cc1` (relative stereo), the IC50 is 5000 nM.

As to `O=C(O)[C@@H](O)[C@@H]1O[C@@H](c2cccc(Cl)c2)[C@@H](c2ccc(Cl)cc2)N(CC2CC2)C1=O` (relative stereo), the IC50 was determined as 2590 nM.

Take `O=C(O)[C@@H](O)[C@H]1O[C@H](c2cccc(Cl)c2)[C@H](c2ccc(Cl)cc2)N(CC2CC2)C1=O` (relative stereo): the IC50 amounted to 2090 nM.

For `O=C1CO[C@@H](c2ccc(Cl)cc2)[C@@H](c2ccc(Cl)cc2)N1[C@@H](CO)c1ccc(Cl)cc1` (relative stereo), the IC50 is 5000 nM.

Regarding `CCC[C@H](C(N)=O)N1C(=O)[C@H](Cc2ccc(F)cc2)O[C@@H](c2ccc(Cl)cc2)[C@H]1c1ccc(Cl)cc1` (relative stereo) [(2R)-2-((2S,3R,6S)-2,3-bis(4-chlorophenyl)-6-(4-fluorobenzyl], the IC50 is 838 nM and 623 nM.

With `N#Cc1ccc(C[C@H]2O[C@H](c3ccc(Cl)cc3)[C@H](c3ccc(Cl)cc3)N(C(C(=O)O)C3CC3)C2=O)cc1` (single isomer, unassigned), the IC50 was 8800 nM.
